Results reported in PubChem BioAssay AID651602 (The Scripps Research Institute Molecular Screening Center, 2012).
Only a part is listed here, and it is no random draw. Calls of active or inactive are those of the source. No stated cut-off is given here; in the data, active means inhibition above about 11%; inactive means the rest.

Assay: growth loss of phage-infected E. coli, primary screen, RecBCD inhibitor project, absorbance, with phage, HTS (AID 651602)
Conditions: at 11.9 µM, hits give high values

inhibition, active:
O=C1OCCN1/N=C/c1ccc([N+](=O)[O-])o1 99.7%
CCn1cc(C(=O)O)c(=O)c2cc(F)c(N3CCN(C)CC3)cc21 103%
O=C(N/N=C/c1ccc(O)c2ncccc12)c1cccc(Br)c1 18.1%
